Data as given in PMC10130008.
No constants are given. Whether binding was seen depends on the method and setting. Binding seen in cells or lysates may run through a third protein. Some binding calls cover weakened binding; strength is not graded here. For some assays here: Tags and fused reporters may be left off the sequences shown.

T1: V5-tagged Integrin α8 (UniProt A2ARA8)
T1 sequence: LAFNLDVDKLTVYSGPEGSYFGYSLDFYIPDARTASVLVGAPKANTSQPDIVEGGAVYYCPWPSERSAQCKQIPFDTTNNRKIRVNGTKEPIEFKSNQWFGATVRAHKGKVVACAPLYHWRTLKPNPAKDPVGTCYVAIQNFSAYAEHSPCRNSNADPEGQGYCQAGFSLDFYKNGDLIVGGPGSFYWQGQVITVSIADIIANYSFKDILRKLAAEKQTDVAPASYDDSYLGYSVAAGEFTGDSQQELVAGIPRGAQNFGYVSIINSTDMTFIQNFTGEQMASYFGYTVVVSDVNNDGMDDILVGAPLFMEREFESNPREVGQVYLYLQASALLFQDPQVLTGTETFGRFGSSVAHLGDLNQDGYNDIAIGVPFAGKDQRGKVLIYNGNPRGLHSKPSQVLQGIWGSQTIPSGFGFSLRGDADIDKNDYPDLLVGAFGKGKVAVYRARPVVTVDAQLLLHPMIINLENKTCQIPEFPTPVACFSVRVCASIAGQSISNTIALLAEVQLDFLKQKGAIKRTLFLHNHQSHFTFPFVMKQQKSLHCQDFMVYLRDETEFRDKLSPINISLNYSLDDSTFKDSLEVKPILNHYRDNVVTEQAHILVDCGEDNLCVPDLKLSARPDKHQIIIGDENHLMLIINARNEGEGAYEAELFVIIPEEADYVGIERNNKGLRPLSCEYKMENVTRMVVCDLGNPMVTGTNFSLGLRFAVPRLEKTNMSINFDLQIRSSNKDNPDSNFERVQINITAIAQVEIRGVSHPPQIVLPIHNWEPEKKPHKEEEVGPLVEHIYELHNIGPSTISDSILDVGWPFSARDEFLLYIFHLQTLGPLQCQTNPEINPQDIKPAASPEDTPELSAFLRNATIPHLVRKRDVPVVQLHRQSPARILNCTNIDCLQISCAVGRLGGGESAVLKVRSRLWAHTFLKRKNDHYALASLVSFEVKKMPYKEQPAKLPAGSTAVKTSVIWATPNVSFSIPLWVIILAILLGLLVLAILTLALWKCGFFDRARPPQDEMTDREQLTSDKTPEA

T2: Integrin α8, endogenous in E11.5 wild-type mouse kidney (mouse (endogenous in E11.5 kidney)) (UniProt A2ARA8)
T2 sequence: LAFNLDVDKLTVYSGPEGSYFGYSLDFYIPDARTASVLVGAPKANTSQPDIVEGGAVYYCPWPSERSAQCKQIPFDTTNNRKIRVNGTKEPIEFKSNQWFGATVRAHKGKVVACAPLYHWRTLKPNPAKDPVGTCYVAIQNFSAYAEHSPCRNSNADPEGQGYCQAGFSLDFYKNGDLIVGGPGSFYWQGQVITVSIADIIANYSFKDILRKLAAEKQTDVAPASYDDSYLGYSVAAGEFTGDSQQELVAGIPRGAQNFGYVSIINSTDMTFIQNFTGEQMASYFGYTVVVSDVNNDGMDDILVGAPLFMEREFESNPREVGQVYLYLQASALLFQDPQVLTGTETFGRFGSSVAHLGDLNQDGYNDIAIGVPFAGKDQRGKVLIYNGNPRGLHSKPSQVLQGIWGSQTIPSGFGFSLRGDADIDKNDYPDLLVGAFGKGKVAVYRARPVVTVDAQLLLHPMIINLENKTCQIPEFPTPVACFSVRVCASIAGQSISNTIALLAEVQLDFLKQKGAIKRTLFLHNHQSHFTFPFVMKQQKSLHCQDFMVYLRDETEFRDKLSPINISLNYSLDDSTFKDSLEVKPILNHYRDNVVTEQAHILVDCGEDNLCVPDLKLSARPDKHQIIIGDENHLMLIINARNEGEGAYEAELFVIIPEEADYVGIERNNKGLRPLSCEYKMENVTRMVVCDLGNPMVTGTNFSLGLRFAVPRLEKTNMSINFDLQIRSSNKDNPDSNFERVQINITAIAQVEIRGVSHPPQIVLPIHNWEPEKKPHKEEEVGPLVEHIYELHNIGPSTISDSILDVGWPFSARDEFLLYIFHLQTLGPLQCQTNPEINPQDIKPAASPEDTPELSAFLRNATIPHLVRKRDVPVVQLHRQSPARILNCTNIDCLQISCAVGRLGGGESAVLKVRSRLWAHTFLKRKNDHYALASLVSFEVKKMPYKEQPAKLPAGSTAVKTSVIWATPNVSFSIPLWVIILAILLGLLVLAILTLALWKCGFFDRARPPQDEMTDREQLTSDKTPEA


Tests used:
[1] = molecular target: T1, V5-tagged Integrin α8; assay: co-IP; HEK293T cells transiently transfected with V5-tagged Integrin α8 or Integrin β1 and Flag-tagged Ism1 or Ism1 truncations; lysate with sonication, antibody 4-6 h at 4 °C, Protein A- or G-agarose overnight; Western blotting
[2] = molecular target: T2, Integrin α8, endogenous in E11.5 wild-type mouse kidney (mouse (endogenous in E11.5 kidney)); assay: proximity ligation; in situ PLA (Duolink) on cryosections of E11.5 wild-type mouse kidney rudiments; rabbit anti-Ism1 and goat anti-Integrin α8; negative control anti-Integrin α8 and rabbit IgG

| binding [1] | binding [2] | Binder |
| --- | --- | --- |
| binds | – | Flag-tagged recombinant Ism1 (Isthmin-1), full-length (protein, UniProt A2ATD1 30-454) SDRQDAAAGNNNLNLESDSTSETSFPLSKEAPEEHQVVHQPFPRQRFPPETGHPSLQRDGPRSFLLDLPNFPDLSKADINGQNPNIQVTIEVVDGPDSEAEKDQHPENKPSWSLPAPDWRAWWQRSLSLARTNSGDQDDKYDSTSDDSNFLSVPRGWDRPAPGHRTFETKEQPEYDSTDGEGDWSLWSVCSVTCGNGNQKRTRSCGYACIATESRTCDRPNCPGIEDTFRTAATEVSLLAGSEEFNATKLFEVDMDSCERWMSCKSEFLKKYMHKVINDLPSCPCSYPTEVAYSTADIFDRIKRKDFRWKDASGPKEKLEIYKPTARYCIRSMLSLESTTLAAQHCCYGDNMQLITRGKGAGTPNLISTEFSAELHYKVDVLPWIICKGDWSRYNEARPPNNGQKCTESPSDEDYIKQFQEAREY |
| – | binds | Ism1 (Isthmin-1), endogenous in E11.5 wild-type mouse kidney (protein, UniProt A2ATD1 30-454) SDRQDAAAGNNNLNLESDSTSETSFPLSKEAPEEHQVVHQPFPRQRFPPETGHPSLQRDGPRSFLLDLPNFPDLSKADINGQNPNIQVTIEVVDGPDSEAEKDQHPENKPSWSLPAPDWRAWWQRSLSLARTNSGDQDDKYDSTSDDSNFLSVPRGWDRPAPGHRTFETKEQPEYDSTDGEGDWSLWSVCSVTCGNGNQKRTRSCGYACIATESRTCDRPNCPGIEDTFRTAATEVSLLAGSEEFNATKLFEVDMDSCERWMSCKSEFLKKYMHKVINDLPSCPCSYPTEVAYSTADIFDRIKRKDFRWKDASGPKEKLEIYKPTARYCIRSMLSLESTTLAAQHCCYGDNMQLITRGKGAGTPNLISTEFSAELHYKVDVLPWIICKGDWSRYNEARPPNNGQKCTESPSDEDYIKQFQEAREY |
